Measurements as given in the supplement of paper PMC11006884.
Only a part is listed here, and it is no random draw.

The chains behind the UniProt entries cited, without tags or fusion partners. Where a name states a change or a piece, a line headed by the entry shows the natural chain unless it says otherwise.
UniProt O60353: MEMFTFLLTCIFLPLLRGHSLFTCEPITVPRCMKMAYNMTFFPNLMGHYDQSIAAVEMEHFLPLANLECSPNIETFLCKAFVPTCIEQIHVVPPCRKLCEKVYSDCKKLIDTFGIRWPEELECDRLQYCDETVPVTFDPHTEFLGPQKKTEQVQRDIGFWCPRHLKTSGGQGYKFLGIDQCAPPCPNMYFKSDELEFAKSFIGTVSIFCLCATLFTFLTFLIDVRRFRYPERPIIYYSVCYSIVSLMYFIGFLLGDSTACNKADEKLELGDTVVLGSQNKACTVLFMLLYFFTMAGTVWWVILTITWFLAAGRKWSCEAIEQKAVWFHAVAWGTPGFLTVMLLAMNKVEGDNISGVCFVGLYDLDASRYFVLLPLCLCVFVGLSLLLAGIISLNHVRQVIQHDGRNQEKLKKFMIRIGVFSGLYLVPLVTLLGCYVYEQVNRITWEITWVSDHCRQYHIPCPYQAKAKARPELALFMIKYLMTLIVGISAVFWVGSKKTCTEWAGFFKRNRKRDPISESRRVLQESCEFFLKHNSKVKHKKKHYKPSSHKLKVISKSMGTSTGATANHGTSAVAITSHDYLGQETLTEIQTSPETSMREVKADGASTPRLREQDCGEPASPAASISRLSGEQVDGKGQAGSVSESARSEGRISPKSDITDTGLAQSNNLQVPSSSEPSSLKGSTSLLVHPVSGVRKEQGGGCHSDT
UniProt O75607: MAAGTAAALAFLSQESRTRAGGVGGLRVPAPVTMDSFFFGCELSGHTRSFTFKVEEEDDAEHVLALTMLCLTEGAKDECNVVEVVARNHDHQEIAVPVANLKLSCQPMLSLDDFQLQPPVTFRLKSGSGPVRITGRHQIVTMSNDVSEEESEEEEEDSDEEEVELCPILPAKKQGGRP
UniProt O76003: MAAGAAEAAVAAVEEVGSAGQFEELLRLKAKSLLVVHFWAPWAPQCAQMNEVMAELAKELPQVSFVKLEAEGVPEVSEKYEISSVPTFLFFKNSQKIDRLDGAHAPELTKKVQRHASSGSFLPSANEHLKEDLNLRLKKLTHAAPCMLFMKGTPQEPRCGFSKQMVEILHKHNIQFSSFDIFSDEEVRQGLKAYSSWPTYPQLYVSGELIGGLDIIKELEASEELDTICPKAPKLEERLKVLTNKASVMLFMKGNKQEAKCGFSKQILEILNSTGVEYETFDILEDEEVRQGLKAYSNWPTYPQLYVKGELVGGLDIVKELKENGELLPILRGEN
UniProt O60232: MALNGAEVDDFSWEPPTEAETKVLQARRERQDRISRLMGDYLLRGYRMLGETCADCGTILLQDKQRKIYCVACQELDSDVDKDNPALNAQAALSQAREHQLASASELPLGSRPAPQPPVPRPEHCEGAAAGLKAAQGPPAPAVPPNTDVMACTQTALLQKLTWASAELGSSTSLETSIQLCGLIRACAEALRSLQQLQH
UniProt O43719: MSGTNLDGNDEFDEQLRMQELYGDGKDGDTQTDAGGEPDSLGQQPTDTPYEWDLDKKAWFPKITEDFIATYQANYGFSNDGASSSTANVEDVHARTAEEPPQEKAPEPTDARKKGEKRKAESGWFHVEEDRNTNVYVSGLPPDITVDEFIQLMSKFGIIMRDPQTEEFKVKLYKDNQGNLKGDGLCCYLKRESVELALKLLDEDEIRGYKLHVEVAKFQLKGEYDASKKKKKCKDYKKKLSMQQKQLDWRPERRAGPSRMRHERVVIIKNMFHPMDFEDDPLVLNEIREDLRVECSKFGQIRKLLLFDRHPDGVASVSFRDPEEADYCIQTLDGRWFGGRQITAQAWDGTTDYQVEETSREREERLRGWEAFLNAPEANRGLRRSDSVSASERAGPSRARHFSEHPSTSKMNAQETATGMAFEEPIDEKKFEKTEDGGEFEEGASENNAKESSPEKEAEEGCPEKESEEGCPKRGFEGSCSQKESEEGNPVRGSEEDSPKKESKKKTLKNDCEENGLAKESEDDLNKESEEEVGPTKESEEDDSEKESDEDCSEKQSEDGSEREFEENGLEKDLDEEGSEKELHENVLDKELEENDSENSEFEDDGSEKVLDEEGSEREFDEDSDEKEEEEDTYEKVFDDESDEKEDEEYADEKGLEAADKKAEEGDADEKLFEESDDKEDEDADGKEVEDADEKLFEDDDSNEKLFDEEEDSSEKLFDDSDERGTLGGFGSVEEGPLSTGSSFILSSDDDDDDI
UniProt O60749: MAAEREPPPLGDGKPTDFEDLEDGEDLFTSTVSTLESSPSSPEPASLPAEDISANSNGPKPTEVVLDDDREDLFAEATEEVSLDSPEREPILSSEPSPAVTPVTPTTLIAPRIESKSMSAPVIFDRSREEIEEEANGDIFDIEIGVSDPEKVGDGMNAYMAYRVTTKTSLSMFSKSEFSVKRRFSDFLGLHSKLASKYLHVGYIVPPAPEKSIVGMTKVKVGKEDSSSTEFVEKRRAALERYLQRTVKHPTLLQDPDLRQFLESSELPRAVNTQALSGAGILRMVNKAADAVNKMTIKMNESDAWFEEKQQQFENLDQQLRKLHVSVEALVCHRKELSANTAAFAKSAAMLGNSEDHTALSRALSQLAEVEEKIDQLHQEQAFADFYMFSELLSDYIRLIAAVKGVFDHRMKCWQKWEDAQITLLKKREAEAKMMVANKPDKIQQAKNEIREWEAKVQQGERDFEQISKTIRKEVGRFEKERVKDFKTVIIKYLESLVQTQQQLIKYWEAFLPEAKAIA
UniProt O43679: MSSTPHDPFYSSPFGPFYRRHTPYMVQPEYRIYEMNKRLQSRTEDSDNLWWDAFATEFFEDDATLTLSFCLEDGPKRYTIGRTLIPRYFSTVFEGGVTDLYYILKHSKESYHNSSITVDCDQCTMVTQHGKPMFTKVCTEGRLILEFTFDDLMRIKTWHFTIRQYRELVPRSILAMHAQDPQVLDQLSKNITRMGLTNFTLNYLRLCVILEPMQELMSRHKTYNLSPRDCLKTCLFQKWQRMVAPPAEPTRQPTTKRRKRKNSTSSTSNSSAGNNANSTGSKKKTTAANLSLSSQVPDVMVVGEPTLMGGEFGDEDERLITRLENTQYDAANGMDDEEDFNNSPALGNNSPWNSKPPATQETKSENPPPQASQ
UniProt O60828: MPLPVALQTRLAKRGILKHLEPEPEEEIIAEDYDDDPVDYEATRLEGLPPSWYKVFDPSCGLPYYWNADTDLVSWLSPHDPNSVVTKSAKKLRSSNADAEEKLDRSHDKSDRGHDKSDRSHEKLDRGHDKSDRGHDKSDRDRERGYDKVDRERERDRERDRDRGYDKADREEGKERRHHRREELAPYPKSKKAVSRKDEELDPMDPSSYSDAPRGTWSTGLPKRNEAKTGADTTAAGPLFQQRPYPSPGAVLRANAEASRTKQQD
UniProt O60934: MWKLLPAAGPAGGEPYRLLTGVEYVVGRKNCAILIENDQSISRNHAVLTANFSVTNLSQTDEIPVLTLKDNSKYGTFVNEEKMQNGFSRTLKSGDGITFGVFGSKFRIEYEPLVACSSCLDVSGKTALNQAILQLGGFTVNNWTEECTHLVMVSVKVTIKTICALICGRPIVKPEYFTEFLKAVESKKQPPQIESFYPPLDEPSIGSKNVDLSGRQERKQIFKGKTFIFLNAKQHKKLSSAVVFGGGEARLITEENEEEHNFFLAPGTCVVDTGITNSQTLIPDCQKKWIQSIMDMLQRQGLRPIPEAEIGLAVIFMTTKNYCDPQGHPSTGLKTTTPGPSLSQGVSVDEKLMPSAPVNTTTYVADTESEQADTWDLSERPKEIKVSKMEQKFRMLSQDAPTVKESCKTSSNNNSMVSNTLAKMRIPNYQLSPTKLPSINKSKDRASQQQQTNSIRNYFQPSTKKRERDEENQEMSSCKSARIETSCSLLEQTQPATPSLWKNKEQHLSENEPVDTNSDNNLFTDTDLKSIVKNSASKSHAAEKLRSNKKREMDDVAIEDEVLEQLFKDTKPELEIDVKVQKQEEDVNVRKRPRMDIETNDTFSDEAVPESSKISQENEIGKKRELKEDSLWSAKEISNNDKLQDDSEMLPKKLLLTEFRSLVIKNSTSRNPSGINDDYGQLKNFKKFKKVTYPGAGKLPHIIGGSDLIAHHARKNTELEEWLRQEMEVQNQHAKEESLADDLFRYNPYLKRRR
UniProt O75717: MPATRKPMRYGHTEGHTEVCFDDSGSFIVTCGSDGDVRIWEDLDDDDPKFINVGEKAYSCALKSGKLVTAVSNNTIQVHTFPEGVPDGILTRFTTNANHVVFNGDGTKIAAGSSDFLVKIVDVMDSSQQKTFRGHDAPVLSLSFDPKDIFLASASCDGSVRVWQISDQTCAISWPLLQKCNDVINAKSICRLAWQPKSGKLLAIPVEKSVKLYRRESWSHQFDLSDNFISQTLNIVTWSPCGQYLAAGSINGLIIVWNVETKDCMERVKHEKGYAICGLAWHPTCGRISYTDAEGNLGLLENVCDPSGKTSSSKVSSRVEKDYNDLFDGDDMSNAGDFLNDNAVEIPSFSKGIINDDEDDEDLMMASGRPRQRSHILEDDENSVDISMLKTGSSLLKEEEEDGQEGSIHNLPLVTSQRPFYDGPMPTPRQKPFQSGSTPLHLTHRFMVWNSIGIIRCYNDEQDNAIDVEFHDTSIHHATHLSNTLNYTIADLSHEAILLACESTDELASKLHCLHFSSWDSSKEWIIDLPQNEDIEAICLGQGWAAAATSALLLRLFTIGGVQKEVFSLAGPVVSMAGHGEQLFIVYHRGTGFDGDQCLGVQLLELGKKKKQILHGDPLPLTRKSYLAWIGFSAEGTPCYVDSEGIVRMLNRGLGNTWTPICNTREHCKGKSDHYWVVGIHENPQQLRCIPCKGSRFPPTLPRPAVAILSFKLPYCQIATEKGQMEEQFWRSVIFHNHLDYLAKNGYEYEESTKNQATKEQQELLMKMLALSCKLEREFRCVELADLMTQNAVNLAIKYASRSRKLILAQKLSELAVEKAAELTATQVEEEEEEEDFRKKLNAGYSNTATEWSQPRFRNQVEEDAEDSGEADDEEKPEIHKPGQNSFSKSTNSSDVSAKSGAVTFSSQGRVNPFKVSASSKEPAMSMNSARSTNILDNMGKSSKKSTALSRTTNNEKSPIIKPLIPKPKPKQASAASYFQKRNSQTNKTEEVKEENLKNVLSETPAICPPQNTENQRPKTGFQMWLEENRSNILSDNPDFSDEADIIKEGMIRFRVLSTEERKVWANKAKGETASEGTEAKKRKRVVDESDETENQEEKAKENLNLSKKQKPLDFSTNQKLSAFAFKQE
UniProt O75448: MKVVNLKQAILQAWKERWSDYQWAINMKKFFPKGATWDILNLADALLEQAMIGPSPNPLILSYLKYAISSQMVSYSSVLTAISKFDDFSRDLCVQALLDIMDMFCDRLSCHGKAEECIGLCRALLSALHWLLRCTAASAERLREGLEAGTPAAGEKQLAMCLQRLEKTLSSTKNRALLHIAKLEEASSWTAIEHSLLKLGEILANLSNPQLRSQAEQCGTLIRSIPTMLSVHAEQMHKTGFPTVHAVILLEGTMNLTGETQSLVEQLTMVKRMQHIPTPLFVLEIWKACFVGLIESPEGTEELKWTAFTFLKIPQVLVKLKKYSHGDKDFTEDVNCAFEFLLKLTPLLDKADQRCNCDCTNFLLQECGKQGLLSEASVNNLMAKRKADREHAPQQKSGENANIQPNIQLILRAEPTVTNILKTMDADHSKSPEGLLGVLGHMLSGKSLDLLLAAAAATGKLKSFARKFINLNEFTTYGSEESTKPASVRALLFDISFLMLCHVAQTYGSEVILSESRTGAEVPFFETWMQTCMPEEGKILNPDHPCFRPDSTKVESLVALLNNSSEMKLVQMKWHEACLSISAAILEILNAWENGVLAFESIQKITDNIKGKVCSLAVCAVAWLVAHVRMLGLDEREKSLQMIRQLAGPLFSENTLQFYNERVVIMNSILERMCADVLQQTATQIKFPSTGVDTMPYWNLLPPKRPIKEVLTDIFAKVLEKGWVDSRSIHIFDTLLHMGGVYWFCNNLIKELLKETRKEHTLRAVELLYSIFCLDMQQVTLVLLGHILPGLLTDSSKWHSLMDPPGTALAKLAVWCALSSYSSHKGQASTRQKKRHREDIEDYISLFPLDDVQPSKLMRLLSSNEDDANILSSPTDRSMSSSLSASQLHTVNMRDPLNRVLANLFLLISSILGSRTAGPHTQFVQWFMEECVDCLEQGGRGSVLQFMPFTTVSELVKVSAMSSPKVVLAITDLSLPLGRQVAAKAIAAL
UniProt O75521: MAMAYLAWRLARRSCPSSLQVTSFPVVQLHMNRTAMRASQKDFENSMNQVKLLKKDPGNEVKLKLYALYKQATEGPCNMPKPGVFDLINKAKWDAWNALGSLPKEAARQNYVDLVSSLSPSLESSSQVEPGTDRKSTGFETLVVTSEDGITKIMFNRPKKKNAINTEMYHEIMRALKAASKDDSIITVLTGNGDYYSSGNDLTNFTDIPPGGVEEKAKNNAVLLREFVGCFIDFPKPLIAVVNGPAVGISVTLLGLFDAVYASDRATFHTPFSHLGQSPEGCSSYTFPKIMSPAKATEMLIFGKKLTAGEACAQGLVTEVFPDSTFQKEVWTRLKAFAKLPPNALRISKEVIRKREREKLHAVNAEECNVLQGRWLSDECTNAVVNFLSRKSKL

compound: COC(=O)C#Cc1ccccc1 [methyl 3-phenylpropiolate]; assay: log2 ratio of iodoacetamide-alkyne labeling of the cysteine site, DMSO over compound (competition); higher = stronger covalent engagement of the cysteine by the compound, active = 1 or more; conditions: 500 µM; treatment time 1 h; system: HEK293T cell lysate
Outline: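 HEK293T lysate (2 mg/mL) was incubated with electrophile (500 µM) or vehicle for 1 h at ambient temperature and then with iodoacetamide alkyne for 1 h. Labelled proteins were clicked to sCIP-TMT reagents, pooled, digested, enriched on streptavidin and measured by Orbitrap Eclipse LC-MS/MS with FAIMS, with FragPipe quantification. The per-cysteine log2 competition ratio is mean control-channel reporter intensity over mean compound-channel reporter intensity. Across three replicates with duplicate channels, cysteines quantified in only one replicate were excluded.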

| Target | log2 ratio of iodoacetamide-alkyne labeling |
| --- | --- |
| FZD6 C615 (UniProt O60353) | inactive: 0.416 |
| NPM3 C41 (UniProt O75607) | inactive: -0.118 |
| GLRX3 C146 (UniProt O76003) | inactive: 0.0419 |
| RAD21 C585 (UniProt O60216) | inactive: 0.0816 |
| UniProt O60232_C152 | inactive: 0.322 |
| HTATSF1 C471 (UniProt O43719) | active: 1.14 |
| UniProt O43913_C10 | inactive: 0.908 |
| UniProt O75934_C132 | inactive: 0.477 |
| ERAL1 C348 (UniProt O75616) | inactive: 0.478 |
| SF3B1 C933 (UniProt O75533) | inactive: 0.276 |
| DIAPH2 C484 (UniProt O60879) | inactive: 0.418 |
| ROCK2 C607 (UniProt O75116) | inactive: 0.0495 |
| SNX2 C413 (UniProt O60749) | inactive: 0.162 |
| GLRX3 C229 (UniProt O76003) | inactive: 0.435 |
| HTATSF1 C480 (UniProt O43719) | inactive: 0.879 |
| SNRNP200 C2011 (UniProt O75643) | inactive: -0.137 |
| UniProt O60232_C70 | inactive: 0.131 |
| CSDE1 C42 (UniProt O75534) | inactive: -0.0192 |
| ULK1 C426 (UniProt O75385) | inactive: 0.91 |

Shown in CSV form: entries from further up
Target,log2 ratio of iodoacetamide-alkyne labeling
GLRX3 C146 (UniProt O76003),inactive: 0.0419
RAD21 C585 (UniProt O60216),inactive: 0.0816

Remaining list, next part

| Target | log2 ratio of iodoacetamide-alkyne labeling |
| --- | --- |
| FLNB C2248 (UniProt O75369) | inactive: -0.193 |
| UniProt O43679_C207 | inactive: 0.392 |
| USO1 C678 (UniProt O60763) | inactive: 0.232 |
| PQBP1 C60 (UniProt O60828) | inactive: -0.0484 |
| CLPX C586 (UniProt O76031) | inactive: -0.0174 |
| OBSL1 C581 (UniProt O75147) | inactive: 0.461 |
| NBN C478 (UniProt O60934) | inactive: 0.83 |
| USO1 C303 (UniProt O60763) | inactive: 0.712 |
| PRC1 C322 (UniProt O43663) | inactive: 0.255 |
| FZD6 C702 (UniProt O60353) | inactive: 0.348 |
| WDHD1 C304 (UniProt O75717) | inactive: -0.132 |
| SNRNP200 C1580 (UniProt O75643) | inactive: 0.0193 |
| AQR C681 (UniProt O60306) | inactive: 0.372 |
| WDHD1 C1008 (UniProt O75717) | inactive: -0.0388 |
| GMDS C237 (UniProt O60547) | inactive: 0.176 |
| MED24 C336 (UniProt O75448) | inactive: -0.0715 |
| KIF1B C1661 (UniProt O60333) | inactive: 0.652 |
| UniProt O75521_C282 | inactive: 0.0564 |
